Source: PMC6076257

Amino acid sequences for entries named in this document (tags omitted).
UniProt P78344: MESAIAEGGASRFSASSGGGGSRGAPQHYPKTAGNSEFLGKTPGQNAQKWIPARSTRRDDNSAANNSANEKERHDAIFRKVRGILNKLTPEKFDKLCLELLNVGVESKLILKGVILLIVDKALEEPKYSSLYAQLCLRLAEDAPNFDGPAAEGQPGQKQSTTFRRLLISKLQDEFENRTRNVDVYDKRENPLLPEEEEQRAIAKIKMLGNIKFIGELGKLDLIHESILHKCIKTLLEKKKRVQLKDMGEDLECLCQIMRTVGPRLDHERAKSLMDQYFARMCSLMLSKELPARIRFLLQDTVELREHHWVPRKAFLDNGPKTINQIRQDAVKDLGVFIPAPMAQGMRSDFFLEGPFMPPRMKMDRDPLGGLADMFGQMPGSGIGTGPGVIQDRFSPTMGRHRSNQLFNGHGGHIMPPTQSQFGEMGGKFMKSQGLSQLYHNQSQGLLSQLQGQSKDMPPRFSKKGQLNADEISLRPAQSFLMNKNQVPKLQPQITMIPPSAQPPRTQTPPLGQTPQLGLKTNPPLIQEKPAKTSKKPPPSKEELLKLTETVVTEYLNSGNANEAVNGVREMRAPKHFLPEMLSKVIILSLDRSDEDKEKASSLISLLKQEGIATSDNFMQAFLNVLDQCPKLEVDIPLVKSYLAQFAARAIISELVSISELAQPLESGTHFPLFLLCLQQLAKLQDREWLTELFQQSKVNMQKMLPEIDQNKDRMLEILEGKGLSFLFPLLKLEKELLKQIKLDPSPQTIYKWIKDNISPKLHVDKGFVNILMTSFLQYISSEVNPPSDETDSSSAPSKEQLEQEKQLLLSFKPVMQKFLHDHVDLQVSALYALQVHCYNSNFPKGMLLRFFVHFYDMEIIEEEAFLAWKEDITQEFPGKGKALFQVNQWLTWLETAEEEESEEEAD
UniProt Q04637: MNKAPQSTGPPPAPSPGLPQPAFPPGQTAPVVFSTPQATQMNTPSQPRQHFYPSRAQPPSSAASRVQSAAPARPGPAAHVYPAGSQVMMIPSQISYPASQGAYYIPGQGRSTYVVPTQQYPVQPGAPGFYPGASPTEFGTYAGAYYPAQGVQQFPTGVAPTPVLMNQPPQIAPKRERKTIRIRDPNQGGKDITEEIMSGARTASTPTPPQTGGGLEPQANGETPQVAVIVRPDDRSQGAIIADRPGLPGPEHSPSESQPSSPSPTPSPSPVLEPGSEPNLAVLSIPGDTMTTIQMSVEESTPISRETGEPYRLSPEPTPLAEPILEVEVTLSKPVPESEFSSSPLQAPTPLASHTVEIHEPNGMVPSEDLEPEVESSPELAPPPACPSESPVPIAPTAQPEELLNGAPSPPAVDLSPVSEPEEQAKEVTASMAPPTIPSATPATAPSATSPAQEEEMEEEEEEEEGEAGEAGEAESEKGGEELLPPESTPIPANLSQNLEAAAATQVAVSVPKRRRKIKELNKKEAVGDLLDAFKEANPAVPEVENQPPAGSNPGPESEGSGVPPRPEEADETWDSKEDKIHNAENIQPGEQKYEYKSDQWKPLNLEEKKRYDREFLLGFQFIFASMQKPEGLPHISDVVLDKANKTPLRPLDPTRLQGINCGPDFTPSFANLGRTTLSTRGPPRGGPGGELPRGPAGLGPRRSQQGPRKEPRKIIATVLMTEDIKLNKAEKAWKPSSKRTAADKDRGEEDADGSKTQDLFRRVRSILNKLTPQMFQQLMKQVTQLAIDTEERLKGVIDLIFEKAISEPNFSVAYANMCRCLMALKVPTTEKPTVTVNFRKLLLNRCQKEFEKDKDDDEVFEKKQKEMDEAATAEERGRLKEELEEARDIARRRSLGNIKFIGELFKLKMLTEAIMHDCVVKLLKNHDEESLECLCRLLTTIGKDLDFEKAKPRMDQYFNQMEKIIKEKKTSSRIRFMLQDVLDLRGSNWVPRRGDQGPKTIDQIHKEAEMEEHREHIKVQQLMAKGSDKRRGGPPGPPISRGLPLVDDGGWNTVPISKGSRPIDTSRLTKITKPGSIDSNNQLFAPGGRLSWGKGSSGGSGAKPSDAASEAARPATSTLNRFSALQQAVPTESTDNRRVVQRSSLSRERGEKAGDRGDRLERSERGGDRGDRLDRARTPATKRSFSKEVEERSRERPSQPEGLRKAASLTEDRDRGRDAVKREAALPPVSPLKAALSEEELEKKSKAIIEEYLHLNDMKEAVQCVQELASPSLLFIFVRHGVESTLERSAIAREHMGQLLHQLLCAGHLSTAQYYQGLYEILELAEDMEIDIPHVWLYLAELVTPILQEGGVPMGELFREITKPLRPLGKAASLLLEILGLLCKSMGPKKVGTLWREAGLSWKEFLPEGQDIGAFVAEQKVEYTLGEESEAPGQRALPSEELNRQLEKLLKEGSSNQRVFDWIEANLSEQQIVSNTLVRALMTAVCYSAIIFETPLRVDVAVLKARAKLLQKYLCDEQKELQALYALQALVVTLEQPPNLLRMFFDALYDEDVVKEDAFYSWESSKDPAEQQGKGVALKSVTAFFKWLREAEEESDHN
UniProt O43432: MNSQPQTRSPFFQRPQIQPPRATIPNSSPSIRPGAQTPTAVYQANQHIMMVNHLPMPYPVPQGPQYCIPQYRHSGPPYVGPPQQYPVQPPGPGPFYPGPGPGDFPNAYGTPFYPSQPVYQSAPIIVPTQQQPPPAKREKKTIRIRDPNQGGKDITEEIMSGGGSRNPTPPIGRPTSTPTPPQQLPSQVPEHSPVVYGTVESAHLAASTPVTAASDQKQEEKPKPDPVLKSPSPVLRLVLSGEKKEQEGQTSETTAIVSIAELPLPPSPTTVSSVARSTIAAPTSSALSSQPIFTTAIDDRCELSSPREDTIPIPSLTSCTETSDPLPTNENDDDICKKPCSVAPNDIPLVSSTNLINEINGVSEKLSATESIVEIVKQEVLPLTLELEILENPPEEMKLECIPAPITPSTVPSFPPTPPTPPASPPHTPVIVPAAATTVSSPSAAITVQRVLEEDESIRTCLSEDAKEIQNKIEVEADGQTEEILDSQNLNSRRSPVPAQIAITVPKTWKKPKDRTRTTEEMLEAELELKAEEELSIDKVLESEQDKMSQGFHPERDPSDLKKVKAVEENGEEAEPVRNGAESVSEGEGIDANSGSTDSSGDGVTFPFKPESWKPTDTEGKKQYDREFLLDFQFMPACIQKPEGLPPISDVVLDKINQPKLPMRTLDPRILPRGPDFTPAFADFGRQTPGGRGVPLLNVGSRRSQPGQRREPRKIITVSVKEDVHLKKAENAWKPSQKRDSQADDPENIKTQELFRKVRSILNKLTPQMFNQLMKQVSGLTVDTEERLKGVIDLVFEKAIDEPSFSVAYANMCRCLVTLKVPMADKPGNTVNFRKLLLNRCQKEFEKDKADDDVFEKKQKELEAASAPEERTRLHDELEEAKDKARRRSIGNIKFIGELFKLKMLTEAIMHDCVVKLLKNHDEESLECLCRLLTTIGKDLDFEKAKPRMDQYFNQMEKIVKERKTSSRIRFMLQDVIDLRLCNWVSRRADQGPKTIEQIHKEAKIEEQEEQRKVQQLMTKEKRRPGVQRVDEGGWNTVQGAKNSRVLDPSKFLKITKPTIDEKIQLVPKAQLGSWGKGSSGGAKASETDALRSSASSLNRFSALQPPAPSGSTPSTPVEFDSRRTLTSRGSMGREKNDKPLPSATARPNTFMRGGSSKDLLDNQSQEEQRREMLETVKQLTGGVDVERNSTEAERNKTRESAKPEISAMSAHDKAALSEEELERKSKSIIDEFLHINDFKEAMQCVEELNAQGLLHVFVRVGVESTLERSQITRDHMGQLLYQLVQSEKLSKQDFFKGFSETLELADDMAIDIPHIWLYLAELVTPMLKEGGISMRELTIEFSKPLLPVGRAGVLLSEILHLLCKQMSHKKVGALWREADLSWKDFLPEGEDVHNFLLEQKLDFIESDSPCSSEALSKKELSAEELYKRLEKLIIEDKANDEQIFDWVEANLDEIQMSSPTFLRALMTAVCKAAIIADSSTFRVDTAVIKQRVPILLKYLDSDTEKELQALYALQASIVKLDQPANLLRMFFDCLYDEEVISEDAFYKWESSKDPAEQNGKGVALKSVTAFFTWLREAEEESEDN
UniProt P51114: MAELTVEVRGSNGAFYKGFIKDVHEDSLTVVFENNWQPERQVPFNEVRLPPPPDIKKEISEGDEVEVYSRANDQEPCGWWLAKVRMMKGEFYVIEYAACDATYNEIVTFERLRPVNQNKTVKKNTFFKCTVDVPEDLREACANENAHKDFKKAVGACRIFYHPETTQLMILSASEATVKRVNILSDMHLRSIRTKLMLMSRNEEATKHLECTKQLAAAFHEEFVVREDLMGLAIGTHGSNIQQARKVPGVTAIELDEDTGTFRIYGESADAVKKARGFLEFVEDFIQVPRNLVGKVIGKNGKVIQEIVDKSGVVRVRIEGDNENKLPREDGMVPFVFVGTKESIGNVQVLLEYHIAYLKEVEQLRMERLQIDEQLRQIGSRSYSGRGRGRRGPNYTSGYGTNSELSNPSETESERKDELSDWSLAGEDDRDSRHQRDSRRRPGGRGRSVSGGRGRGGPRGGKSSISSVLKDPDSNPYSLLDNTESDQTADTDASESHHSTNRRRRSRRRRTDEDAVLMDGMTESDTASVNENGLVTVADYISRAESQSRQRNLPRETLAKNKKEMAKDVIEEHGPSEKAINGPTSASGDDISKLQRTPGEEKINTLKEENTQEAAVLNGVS
UniProt P51116: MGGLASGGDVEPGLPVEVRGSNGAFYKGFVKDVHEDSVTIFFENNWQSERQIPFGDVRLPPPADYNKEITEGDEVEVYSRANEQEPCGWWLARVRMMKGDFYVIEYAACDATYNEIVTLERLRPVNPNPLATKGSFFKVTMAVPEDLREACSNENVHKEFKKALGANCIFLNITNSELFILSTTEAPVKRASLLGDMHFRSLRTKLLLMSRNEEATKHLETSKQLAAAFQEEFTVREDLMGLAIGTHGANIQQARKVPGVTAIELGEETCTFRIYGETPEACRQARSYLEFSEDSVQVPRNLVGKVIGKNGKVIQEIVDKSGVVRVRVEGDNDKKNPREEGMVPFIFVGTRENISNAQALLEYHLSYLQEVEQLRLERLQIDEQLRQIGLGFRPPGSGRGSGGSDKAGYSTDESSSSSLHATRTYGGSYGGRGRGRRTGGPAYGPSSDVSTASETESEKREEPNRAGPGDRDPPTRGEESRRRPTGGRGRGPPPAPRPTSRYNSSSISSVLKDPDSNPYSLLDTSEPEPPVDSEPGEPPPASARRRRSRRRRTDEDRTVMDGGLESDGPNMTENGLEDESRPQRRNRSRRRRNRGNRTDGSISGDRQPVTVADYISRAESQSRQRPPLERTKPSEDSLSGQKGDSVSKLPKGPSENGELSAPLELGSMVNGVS
UniProt O15371: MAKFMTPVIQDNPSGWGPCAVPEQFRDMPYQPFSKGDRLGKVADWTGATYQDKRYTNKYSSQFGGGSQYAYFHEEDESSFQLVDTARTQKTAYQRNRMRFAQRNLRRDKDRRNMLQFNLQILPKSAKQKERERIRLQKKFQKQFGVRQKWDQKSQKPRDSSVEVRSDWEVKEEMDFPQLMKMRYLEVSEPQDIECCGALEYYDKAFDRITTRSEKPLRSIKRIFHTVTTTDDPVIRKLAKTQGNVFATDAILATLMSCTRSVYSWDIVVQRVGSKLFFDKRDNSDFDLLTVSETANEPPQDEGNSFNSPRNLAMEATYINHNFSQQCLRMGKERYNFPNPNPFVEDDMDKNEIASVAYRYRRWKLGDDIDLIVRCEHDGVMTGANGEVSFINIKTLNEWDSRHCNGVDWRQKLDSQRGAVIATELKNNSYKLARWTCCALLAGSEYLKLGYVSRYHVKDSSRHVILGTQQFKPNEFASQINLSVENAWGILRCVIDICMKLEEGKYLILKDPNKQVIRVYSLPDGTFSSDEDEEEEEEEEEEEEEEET
UniProt P60842: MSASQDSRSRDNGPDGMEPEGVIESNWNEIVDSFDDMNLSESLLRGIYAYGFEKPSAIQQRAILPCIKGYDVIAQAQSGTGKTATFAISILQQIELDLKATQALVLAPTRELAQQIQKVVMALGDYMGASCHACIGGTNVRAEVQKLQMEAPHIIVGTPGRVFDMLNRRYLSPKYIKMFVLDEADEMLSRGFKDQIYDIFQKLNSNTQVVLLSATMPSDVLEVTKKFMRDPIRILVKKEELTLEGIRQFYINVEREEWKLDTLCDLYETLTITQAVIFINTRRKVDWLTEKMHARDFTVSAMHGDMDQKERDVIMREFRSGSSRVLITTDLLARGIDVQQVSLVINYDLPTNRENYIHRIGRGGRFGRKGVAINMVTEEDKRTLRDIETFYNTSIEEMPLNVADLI

What was measured:
Assay in all cases: affinity purification with mass spectrometry; HA-tagged bait transiently expressed in MDA-MB-231; lysis in 50 mM TrisHCl pH 7.5, 150 mM NaCl, 0.5% NP-40, with Benzonase and RNase A; eluted with HA-peptide; LC-MS, PSM ratios over empty-vector control and SAINT (n = 3)
HA-DAP5 = HA-DAP5 (UniProt P78344)
HA-eIF4GI = HA-eIF4GI (UniProt Q04637)
HA-eIF4GII = HA-eIF4GII (UniProt O43432)

binding (HA-DAP5) | binding (HA-eIF4GI) | binding (HA-eIF4GII) | Substance
binds | binds | binds | FXR1 (from UniProt P51114 1-621)
binds | binds | binds | FXR2 (from UniProt P51116 1-673)
binds |  |  | eIF3d (from UniProt O15371 1-548)
binds |  | binds | eIF4A1 (from UniProt P60842 1-406)

No constants are given. Whether binding was seen depends on the method and setting. Binding seen in cells or lysates may run through a third protein. Here binding means that the protein was enriched with, or labelled near, the bait; the list need not be complete.
